{
  "source": "paper PMC11329519",
  "molecules": {"B1": {"name": "C-terminal GFP-tagged Sema7A (protein, UniProt Q9QUR8 45-646)", "chain": "QGHSRSGPRISAVWKGQDHVDFSQPEPHTVLFHEPGSFSVWVGGRGKVYHFNFPEGKNASVRTVNIGSTKGSCQDKQDCGNYITLLERRGNGLLVCGTNARKPSCWNLVNDSVVMSLGEMKGYAPFSPDENSLVLFEGDEVYSTIRKQEYNGKIPRFRRIRGESELYTSDTVMQNPQFIKATIVHQDQAYDDKIYYFFREDNPDKNPEAPLNVSRVAQLCRGDQGGESSLSVSKWNTFLKAMLVCSDAATNRNFNRLQDVFLLPDPSGQWRDTRVYGVFSNPWNYSAVCVYSLGDIDRVFRTSSLKGYHMGLPNPRPGMCLPKKQPIPTETFQVADSHPEVAQRVEPMGPLKTPLFHSKYHYQKVVVHRMQASNGETFHVLYLTTDRGTIHKVVESGDQDHSFVFNIMEIQPFHRAAAIQAISLDADRRKLYVTSQWEVSQVPLDMCEVYSGGCHGCLMSRDPYCGWDQDRCVSIYSSQRSVLQSINPAEPHRECPNPKPDEAPLQKVSLARNSRYYLTCPMESRHATYLWRHEENVEQSCEPGHQSPSCILFIENLTARQYGHYRCEAQEGSYLREAQHWELLPEDRALAEQLMGHARALA"}, "B2": {"name": "Sema4D-flag (mouse Sema4D with a C-terminal, cytoplasmic flag tag) (protein, UniProt O09126 24-861)", "chain": "FAPVPRLTWEHGEVGLVQFHKPGIFNYSALLMSEDKDTLYVGAREAVFAVNALNISEKQHEVYWKVSEDKKSKCAEKGKSKQTECLNYIRVLQPLSSTSLYVCGTNAFQPTCDHLNLTSFKFLGKSEDGKGRCPFDPAHSYTSVMVGGELYSGTSYNFLGSEPIISRNSSHSPLRTEYAIPWLNEPSFVFADVIQKSPDGPEGEDDKVYFFFTEVSVEYEFVFKLMIPRVARVCKGDQGGLRTLQKKWTSFLKARLICSKPDSGLVFNILQDVFVLRAPGLKEPVFYAVFTPQLNNVGLSAVCAYTLATVEAVFSRGKYMQSATVEQSHTKWVRYNGPVPTPRPGACIDSEARAANYTSSLNLPDKTLQFVKDHPLMDDSVTPIDNRPKLIKKDVNYTQIVVDRTQALDGTFYDVMFISTDRGALHKAVILTKEVHVIEETQLFRDSEPVLTLLLSSKKGRKFVYAGSNSGVVQAPLAFCEKHGSCEDCVLARDPYCAWSPAIKACVTLHQEEASSRGWIQDMSGDTSSCLDKSKESFNQHFFKHGGTAELKCFQKSNLARVVWKFQNGELKAASPKYGFVGRKHLLIFNLSDGDSGVYQCLSEERVRNKTVSQLLAKHVLEVKMVPRTPPSPTSEDAQTEGSKITSKMPVASTQGSSPPTPALWATSPRAATLPPKSSSGTSCEPKMVINTVPQLHSEKTVYLKSSDNRLLMSLLLFIFVLFLCLFSYNCYKGYLPGQCLKFRSALLLGKKTPKSDFSDLEQSVKETLVEPGSFSQQNGDHPKPALDTGYETEQDTITSKVPTDREDSQRIDELSARDKPFDVKCELKFADSDADGD"}, "B3": {"name": "endogenous Sema7A (protein, UniProt Q9QUR8 45-646)", "chain": "B1 chain"}},
  "key": {"[1]": {"biological_target": "T1, human sp-myc-SEMA4D (human) (UniProt Q92854)", "T1 sequence": "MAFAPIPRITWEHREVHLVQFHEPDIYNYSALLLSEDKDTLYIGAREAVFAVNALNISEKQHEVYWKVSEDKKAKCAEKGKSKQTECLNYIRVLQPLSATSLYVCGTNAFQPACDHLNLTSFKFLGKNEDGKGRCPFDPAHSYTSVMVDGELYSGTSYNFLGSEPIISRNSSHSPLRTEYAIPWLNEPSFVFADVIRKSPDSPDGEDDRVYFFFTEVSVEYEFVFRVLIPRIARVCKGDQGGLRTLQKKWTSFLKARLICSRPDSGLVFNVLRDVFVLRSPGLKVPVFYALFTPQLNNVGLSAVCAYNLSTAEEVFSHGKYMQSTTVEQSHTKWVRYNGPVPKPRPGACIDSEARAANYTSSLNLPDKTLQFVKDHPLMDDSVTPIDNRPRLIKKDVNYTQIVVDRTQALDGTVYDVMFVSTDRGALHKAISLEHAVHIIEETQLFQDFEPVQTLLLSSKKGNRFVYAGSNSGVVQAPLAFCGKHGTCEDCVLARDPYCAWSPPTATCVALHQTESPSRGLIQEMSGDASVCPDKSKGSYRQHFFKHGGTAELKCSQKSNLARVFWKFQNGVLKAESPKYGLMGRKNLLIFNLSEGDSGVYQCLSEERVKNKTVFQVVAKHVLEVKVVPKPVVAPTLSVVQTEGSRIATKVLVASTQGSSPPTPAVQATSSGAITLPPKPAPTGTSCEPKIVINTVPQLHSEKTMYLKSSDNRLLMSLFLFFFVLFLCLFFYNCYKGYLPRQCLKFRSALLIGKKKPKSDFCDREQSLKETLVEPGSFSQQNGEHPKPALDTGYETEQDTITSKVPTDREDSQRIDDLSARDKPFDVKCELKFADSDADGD", "assay": "co-IP; HEK293T cells co-transfected with the tagged constructs (the methods name Hela cells); Flag lysis buffer (50 mM Tris pH 7.4, 150 mM NaCl, 1 mM EDTA, 1% Triton X100); immunoprecipitation 2 h at 4 C, 5 washes in lysis buffer"}, "[2]": {"biological_target": "T2, human sp-myc-SEMA4D-Q497P (human) (UniProt Q92854)", "T2 sequence": "T1 sequence with Q476P", "assay": "co-IP; HEK293T cells co-transfected with the tagged constructs (the methods name Hela cells); Flag lysis buffer (50 mM Tris pH 7.4, 150 mM NaCl, 1 mM EDTA, 1% Triton X100); immunoprecipitation 2 h at 4 C, 5 washes in lysis buffer"}, "[3]": {"biological_target": "T3, N-Myc-Sema4D (addgene # 51599) (UniProt O09126)", "T3 sequence": "B2 chain", "assay": "co-IP; HEK293T cells co-transfected with the tagged constructs (the methods name Hela cells); Flag lysis buffer (50 mM Tris pH 7.4, 150 mM NaCl, 1 mM EDTA, 1% Triton X100); immunoprecipitation 2 h at 4 C, 5 washes in lysis buffer"}, "N-myc-Sema6A": {"biological_target": "T4, N-myc-Sema6A (UniProt O35464)", "T4 sequence": "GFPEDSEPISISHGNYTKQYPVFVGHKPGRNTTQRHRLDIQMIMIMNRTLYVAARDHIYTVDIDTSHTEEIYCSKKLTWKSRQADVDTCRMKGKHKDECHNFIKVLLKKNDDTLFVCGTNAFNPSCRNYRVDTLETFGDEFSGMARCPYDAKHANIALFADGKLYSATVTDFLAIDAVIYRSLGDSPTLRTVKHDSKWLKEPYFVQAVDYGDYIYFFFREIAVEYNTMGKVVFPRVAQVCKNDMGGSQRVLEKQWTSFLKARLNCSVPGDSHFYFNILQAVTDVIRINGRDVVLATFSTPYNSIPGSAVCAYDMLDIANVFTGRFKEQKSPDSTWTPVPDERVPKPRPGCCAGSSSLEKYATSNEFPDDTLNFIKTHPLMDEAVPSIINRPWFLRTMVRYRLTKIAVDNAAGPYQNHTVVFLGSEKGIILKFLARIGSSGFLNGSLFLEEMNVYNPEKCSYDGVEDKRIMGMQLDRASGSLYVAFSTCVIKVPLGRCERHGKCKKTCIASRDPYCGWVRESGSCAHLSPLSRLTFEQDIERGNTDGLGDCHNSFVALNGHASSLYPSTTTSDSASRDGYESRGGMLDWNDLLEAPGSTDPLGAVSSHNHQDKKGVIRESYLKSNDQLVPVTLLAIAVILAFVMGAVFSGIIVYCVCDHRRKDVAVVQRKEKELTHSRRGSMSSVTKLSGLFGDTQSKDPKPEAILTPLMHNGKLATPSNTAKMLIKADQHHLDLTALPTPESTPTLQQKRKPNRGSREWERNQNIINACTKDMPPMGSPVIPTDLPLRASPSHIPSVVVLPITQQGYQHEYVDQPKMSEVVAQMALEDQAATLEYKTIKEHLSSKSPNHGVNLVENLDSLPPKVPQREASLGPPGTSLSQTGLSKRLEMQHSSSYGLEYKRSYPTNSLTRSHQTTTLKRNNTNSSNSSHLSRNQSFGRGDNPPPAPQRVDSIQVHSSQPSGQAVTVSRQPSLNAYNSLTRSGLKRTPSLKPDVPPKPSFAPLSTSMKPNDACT", "assay": "co-IP; HEK293T cells co-transfected with the tagged constructs (the methods name Hela cells); Flag lysis buffer (50 mM Tris pH 7.4, 150 mM NaCl, 1 mM EDTA, 1% Triton X100); immunoprecipitation 2 h at 4 C, 5 washes in lysis buffer"}, "[4]": {"biological_target": "T3, N-Myc-Sema4D (addgene # 51599)", "assay": "co-IP; competition: co-IP of Sema4D-flag with N-Myc-Sema4D from HEK cells in the presence of increasing amounts (up to 1.5 ug) of HA-Sema7A; Flag lysis buffer"}, "[5]": {"biological_target": "T5, endogenous Sema4D (mouse (endogenous in E18.5 cortex)) (UniProt O09126)", "T5 sequence": "B2 chain", "assay": "co-IP; endogenous proteins; anti-Sema4D antibody on E18.5 mouse cortex lysate; Flag lysis buffer with protease and phosphatase inhibitors"}},
  "note": "Substitutions are numbered along the chain they refer to. No constants are given. Whether binding was seen depends on the method and setting. In cells and extracts the contact can be indirect. Some results given as binding are weak or reduced against the parent protein; the word gives no strength. For part of these data: Sequences can lack the tags named with a protein.",
  "data": [
    {"molecule": "sp-flag-hSema4D (from UniProt Q92854 22-862)", "values": [
      {"measurement": "binding", "setting": "[1]", "result": "binds"},
      {"measurement": "binding", "setting": "[2]", "result": "binds"}
    ]},
    {"molecule": "B1", "values": [
      {"measurement": "binding", "setting": "[3]", "result": "binds"},
      {"measurement": "binding", "setting": "N-myc-Sema6A", "result": "binds weakly"}
    ]},
    {"molecule": "B2", "values": [
      {"measurement": "binding", "setting": "[4]", "result": "binds"}
    ]},
    {"molecule": "B3", "values": [
      {"measurement": "binding", "setting": "[5]", "result": "binds"}
    ]}
  ]
}
